From ROBIN, a set of small-molecule microarray screens (doi:10.1002/anie.202211358).

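The test is a small-molecule microarray: each compound is printed twice on a reactive slide, and binding shows as fluorescence of the labelled oligonucleotide after washing. For the PreQ1, TPP and SAM-II riboswitches the laboratory earlier reported (doi:10.1038/s41467-019-09493-3) 1 µM RNA, 2 h, and a rule that included a mean Z-score above 3 (spot signal-to-noise against the whole library), a score well above that on a control array, and duplicate spots agreeing (coefficient of variation under 100). The data file gives only the calls; its cut-offs may differ, and compounds hitting several targets are kept. These are primary screening calls, not affinities; a compound without a hit may have attached poorly or may still bind in solution.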
Key: active = hit, inactive = tested without a hit.
Compounds were drawn at random from those tested, without regard to their results.
A target missing from an entry has no call listed here.

Targets, with sequences 5′ to 3′:
T1: SAM-II riboswitch RNA pseudoknot, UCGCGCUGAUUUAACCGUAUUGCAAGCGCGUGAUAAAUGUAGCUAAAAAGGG. About 200 hits among about 21,000 compounds.
T2: PreQ1 riboswitch RNA pseudoknot, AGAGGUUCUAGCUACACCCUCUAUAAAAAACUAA. From B. subtilis. About 170 hits among about 24,000 compounds.
T3: TPP riboswitch RNA three-way junction, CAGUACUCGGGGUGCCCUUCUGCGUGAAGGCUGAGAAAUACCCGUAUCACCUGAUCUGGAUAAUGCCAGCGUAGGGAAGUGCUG. About 160 hits among about 24,000 compounds.

With O=C(Nc1ccc(Nc2ccncc2)cc1)c1ccc([N+](=O)[O-])cc1 the screen gave T1: inactive; T2: inactive; T3: inactive. For OC(COc1ccc(Br)cc1)Cn1ccnc1 (stereo not shown) the calls were T1: inactive; T2: inactive; T3: inactive. For Cc1cc(N)n(CC(=O)N2C[C@H]3COc4ccccc4C[C@@]3(C(=O)O)C2)n1 the calls were T1: inactive; T2: active; T3: inactive. With Cc1nc2nc(-c3ccccc3)nn2c(C)c1CC(=O)N(CCO)Cc1ccccc1 the screen gave T2: inactive; T3: inactive. With CCOc1ccc(CN2CCNCC2CCO)cc1 (stereo not shown) the screen gave T1: inactive; T2: inactive; T3: inactive. Calls for Cc1csc2c(N3CCC(NCc4c[nH]c(=O)[nH]c4=O)CC3)ncnc12 are T1: inactive; T2: inactive; T3: inactive. With Cc1cc(N2CCN(CCO)CC2)n2nc(-c3ccccc3)c(C)c2n1 the screen gave T2: inactive; T3: inactive.

Calls for Cc1nc(-n2nc(C)c(Cc3ccc(Cl)cc3)c2C)sc1C(=O)NCCO are T2: inactive; T3: inactive. Nc1ccc(-c2cc(N)n(-c3ccc(Oc4ccccc4)c(S(=O)(=O)O)c3)n2)cc1 was scored T1: inactive; T2: inactive; T3: inactive. For Cc1ccc(NCc2c3ccccc3c(CNc3ccc(C)cc3Br)c3ccccc23)c(Br)c1 the calls were T1: inactive; T2: inactive; T3: inactive. For Cc1cc(F)ccc1NC(=O)CNCCN1CCOC1=O the calls were T1: inactive; T2: inactive; T3: inactive. For COCCC1(CO)CCCN(Cc2c(Cl)cncc2Cl)C1 (stereo not shown) the calls were T1: inactive; T2: inactive; T3: inactive. Calls for Cc1cnc(C)c(N2CC[C@H](N3CCN(C)CC3)[C@H](CCCO)C2)n1 are T1: inactive; T2: inactive; T3: inactive. With Cc1ccc(S(=O)(=O)N(C)CC(O)Cn2c3ccccc3c3ccccc32)cc1 (stereo not shown) the screen gave T1: inactive; T2: inactive; T3: inactive.

For Cc1nc[nH]c1CSCCNC(=O)CC1COCCN1 (stereo not shown) the calls were T1: inactive; T2: inactive; T3: inactive. For CC1CN(c2c(F)c(F)c3c(=O)c(C(=O)O)cn(C4CC4)c3c2F)CC(C)N1 (stereo not shown) the calls were T1: inactive; T2: inactive; T3: inactive. Calls for Nc1nnc(CCNC(=O)CC(c2ccccc2)c2ccccc2F)s1 (stereo not shown) are T1: inactive; T2: inactive; T3: inactive. CCNc1nc(N2CCCCC2)nc(-n2nnc(C(C)=O)c2C)n1 was scored T1: inactive; T2: inactive; T3: inactive. CC(C)CCC1(C2CCNCC2)NC(=O)N(CCN(C)C)C1=O (stereo not shown) was scored T1: inactive; T2: inactive; T3: inactive. Calls for COc1cccc(CNC(C)(C)CO)c1OCc1ccc(Cl)cc1 are T1: inactive; T2: inactive; T3: inactive. For N#CC1=C(N)Oc2cc(O)ccc2C1c1ccc(Cl)cc1 (stereo not shown) the calls were T1: inactive; T2: inactive; T3: inactive.

Calls for N[C@H](CSC(c1ccccc1)(c1ccccc1)c1ccccc1)C(=O)O are T1: inactive; T2: inactive; T3: inactive. With C[C@H](NC(=O)C(C#N)=Cc1cccc(Br)n1)c1ccccc1 the screen gave T1: inactive; T2: inactive; T3: inactive. Calls for CC(C)(CN1CCOCC1)NCc1c[nH]nc1-c1ccc(F)cc1 are T1: inactive; T2: inactive; T3: inactive. Cc1cc(NCCCN(C)C)n2ncc(-c3ccccc3)c2n1 was scored T2: inactive; T3: inactive.

For reference, 2 entries once more:

| compound | T1 | T2 | T3 |
|---|---|---|---|
| `Cc1cnc(C)c(N2CC[C@H](N3CCN(C)CC3)[C@H](CCCO)C2)n1` | inactive | inactive | inactive |
| `C[C@H](NC(=O)C(C#N)=Cc1cccc(Br)n1)c1ccccc1` | inactive | inactive | inactive |